Results are given in words; binding and its absence hold for the method and conditions named. In cells and extracts the contact can be indirect. A yes stands for co-enrichment or nearness to the bait. Other partners may have been found.
Target: Flag-tagged ATG5 (human) (UniProt Q9H1Y0)
Assay: affinity purification with mass spectrometry; Tri-SILAC labelling and LC-MS/MS; Flag-tagged ATG5 as bait, extracts of HEK293T and HeLa cells

By UniProt entry, the sequences of proteins in these tests, tags left out.
UniProt Q9H1Y0: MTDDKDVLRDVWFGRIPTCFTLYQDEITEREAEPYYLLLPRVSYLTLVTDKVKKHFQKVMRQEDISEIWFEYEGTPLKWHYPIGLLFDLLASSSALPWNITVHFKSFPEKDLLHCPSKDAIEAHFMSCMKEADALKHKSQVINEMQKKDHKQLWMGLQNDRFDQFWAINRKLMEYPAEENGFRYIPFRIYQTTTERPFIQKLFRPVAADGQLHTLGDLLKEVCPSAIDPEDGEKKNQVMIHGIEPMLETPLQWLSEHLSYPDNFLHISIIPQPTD
UniProt P78527: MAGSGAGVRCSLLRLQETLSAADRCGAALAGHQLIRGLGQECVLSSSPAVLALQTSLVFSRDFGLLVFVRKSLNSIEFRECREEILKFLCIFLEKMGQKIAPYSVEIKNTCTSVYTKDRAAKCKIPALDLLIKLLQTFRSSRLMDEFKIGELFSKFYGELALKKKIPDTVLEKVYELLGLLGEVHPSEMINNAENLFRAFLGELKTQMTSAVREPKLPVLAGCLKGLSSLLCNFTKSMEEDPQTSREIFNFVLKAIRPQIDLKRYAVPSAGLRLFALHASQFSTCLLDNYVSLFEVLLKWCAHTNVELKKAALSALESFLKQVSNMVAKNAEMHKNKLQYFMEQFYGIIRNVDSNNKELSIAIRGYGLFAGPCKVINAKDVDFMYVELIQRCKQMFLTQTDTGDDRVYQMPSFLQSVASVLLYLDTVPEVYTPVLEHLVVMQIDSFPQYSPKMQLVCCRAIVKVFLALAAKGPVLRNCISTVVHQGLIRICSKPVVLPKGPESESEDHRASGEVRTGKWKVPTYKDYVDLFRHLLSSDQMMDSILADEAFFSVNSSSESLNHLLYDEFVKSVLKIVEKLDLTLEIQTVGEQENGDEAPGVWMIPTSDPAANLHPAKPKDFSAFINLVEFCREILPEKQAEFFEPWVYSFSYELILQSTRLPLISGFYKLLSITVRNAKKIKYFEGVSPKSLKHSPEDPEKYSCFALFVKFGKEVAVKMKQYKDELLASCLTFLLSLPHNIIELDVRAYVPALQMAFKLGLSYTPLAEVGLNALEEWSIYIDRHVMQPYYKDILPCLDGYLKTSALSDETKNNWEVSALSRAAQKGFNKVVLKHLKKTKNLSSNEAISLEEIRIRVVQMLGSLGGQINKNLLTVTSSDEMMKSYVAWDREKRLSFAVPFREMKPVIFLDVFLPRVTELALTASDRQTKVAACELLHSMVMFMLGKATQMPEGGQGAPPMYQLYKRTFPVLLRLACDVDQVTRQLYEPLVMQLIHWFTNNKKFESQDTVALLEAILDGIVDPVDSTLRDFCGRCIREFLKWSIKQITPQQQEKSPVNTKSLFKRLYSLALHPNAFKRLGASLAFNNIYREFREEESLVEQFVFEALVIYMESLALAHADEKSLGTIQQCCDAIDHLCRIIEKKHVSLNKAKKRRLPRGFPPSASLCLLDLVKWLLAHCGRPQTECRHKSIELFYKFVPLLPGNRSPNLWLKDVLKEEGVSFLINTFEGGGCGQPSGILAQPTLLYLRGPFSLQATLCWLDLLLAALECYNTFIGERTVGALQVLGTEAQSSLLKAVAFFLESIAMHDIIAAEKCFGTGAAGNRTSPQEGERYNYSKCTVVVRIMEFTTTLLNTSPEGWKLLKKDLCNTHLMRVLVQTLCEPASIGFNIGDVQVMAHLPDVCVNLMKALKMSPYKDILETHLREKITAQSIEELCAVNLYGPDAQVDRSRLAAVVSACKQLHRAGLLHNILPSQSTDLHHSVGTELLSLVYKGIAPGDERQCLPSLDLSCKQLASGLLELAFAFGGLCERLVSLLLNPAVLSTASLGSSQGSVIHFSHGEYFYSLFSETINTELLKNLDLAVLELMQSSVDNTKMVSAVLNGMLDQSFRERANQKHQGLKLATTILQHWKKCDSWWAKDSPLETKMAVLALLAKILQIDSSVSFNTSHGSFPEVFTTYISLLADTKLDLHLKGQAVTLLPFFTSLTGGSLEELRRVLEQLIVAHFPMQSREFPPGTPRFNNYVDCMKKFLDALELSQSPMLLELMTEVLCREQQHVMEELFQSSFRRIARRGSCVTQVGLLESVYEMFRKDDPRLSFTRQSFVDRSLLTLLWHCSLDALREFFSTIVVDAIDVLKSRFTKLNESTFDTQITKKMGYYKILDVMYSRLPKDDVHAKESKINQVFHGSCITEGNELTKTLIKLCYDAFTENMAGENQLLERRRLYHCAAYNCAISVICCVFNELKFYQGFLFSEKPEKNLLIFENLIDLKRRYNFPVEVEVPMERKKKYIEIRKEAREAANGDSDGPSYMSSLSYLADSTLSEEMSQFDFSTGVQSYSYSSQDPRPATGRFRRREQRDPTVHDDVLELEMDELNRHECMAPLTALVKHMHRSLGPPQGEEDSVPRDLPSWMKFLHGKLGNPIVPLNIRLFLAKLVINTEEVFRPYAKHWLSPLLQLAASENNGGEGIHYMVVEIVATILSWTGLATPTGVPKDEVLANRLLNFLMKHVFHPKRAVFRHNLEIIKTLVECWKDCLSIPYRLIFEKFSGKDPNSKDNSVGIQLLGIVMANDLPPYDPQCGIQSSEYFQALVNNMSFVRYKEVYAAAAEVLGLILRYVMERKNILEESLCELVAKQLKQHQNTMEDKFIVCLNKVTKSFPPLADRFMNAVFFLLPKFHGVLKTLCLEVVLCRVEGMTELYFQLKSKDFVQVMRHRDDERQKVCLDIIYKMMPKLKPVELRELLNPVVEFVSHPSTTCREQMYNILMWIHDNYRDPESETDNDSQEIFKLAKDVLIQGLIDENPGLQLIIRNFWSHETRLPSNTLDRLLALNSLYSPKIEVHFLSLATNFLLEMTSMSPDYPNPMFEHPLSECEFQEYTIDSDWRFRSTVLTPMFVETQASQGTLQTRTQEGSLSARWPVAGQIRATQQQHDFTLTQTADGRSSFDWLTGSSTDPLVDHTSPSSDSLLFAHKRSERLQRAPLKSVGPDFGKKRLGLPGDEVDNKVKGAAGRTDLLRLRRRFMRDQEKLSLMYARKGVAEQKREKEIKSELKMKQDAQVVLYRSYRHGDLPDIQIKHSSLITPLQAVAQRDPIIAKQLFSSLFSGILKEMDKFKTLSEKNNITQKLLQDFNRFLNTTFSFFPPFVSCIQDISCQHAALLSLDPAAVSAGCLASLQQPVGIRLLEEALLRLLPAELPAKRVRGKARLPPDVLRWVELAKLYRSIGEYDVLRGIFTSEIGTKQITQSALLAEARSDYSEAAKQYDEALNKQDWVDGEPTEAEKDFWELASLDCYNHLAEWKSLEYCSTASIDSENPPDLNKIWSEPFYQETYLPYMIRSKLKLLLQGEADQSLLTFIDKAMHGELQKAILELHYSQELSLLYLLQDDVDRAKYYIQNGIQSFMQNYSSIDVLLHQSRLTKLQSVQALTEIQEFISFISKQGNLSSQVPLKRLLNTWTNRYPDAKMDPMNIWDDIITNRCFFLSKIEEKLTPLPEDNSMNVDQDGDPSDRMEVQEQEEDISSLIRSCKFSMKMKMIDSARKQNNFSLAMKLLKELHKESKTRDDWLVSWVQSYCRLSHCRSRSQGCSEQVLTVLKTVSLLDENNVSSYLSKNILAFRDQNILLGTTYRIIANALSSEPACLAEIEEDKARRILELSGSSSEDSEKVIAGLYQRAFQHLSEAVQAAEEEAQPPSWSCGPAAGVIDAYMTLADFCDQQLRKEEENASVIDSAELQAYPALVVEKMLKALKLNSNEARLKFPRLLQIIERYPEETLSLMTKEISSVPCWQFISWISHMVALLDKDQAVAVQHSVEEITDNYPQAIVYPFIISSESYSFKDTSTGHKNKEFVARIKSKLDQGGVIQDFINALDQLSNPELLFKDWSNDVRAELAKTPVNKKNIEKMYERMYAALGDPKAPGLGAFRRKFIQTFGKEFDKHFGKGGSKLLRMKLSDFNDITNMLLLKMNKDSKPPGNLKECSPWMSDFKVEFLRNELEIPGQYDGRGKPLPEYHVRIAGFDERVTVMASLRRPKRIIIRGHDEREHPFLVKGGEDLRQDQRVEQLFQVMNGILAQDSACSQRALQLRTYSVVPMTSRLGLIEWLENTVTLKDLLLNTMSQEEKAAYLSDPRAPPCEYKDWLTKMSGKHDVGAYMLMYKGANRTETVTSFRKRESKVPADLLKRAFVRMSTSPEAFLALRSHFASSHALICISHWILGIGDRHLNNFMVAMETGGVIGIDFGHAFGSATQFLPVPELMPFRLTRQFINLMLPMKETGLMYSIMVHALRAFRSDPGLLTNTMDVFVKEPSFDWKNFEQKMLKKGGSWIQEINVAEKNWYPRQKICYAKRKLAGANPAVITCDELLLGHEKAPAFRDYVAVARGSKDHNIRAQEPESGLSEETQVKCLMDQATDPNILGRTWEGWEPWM
UniProt P12956: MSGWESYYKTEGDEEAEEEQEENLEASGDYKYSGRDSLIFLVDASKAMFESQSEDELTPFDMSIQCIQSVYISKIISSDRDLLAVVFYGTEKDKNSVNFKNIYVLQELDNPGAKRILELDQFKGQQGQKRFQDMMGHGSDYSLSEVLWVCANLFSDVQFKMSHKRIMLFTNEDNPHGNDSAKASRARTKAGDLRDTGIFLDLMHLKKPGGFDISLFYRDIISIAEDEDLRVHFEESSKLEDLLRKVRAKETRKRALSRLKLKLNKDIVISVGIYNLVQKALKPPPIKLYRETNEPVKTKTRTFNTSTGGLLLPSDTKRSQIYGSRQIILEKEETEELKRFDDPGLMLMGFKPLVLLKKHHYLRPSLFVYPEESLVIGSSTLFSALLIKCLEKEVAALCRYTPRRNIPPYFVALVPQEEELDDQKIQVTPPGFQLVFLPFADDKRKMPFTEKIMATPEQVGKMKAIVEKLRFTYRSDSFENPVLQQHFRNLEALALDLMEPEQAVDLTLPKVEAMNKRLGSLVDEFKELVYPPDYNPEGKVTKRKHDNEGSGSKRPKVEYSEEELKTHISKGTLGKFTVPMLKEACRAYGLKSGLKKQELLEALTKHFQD

Substance: DNA-dependent protein kinase catalytic subunit (from UniProt P78527 1-4128)
- binding: binds

Substance: endogenous Ku70 (from UniProt P12956 1-609)
- binding: binds

Source: PMC9114114
